Test results from US20250188065A1, “LIGHT-CONTROLLED BIOORTHOGONAL TETRAZINE LIGATION” (The Regents of the University Of California, priority 2020, published 2025).

What was measured:
[1] = Light-triggered decaging of photocaged dihydrotetrazine to tetrazine (HPLC); type: physicochemical; conditions: 37° C.
[2] = Dual activation: light-triggered release of doxorubicin from TCO-Dox in PBS (HPLC-MS); conditions: 1a 8 μM + TCO-Dox 3c 5.5 μM, PBS 0.1% DMSO, 37° C., after 24 hours

## C#CCCC1=NNC(c2ccccc2)=NN1C(=O)OC(C)c1ccccc1[N+](=O)[O-] (stereo not shown) [1a, 1-(2-nitrophenyl)ethyl 6-(but-3-yn-1-yl)-3-phenyl-1,2,4,5-tetrazine-1(4H)-carboxylate]
[1]; visible blue light 405 nm LED (18 W), 2 minutes, PBS containing 0.1% DMSO, HPLC
  conversion (decaging of photocaged dihydrotetrazine to tetrazine 2a): 94%

## 1c: five-amino-acid peptide containing photocaged dihydrotetrazine, obtained by SPPS from 1b; peptide sequence LKKGA (photocaged dihydrotetrazine modification)
[1]; 1c 10 μM, LED irradiation 2 minutes, PBS
  tetrazine-peptide 2c formed, yield: 96%

## COc1cccc2c1C(=O)c1c(O)c3c(c(O)c1C2=O)C[C@@](O)(C(=O)CO)C[C@@H]3O[C@H]1C[C@H](NC(=O)OC2/C=C/CCCCC2)[C@H](O)[C@H](C)O1 (stereo partly shown) [TCO-Dox 3c]
[2]; LED 405 nm 18 W 2 minutes
  TCO-Dox 3c converted to doxorubicin: 91%
[2]; LED 405 nm 2 minutes
  consumption of TCO-Dox: fully consumed
